Test results: patent US6664406B1, “Nervonic acid derivatives, their preparation and use” (Croda International PLC, priority 1999, dated 2003)

Tested on: neurological EAE in the Lewis rat

SMILES	body weight loss beginning (500 mg/kg/day) [days after inoculation]	Body weight loss began later than recorded in other treatments (low and high dose (750 and 1000 mg/kg/day)) [days]
CCC=CCC=CCC=CCC=CCC=CC/C=C\CCC(=O)OCCCOC(=O)CCCCCCCCCCCCC/C=C\CCCCCCCC [NA:DHA, 1-(z-15-tetracosenoyloxy)-3-(z-4,7,10,13,16,19-docosahexaenoyloxy)propane]	8	–
CCCCC/C=C\C/C=C\C/C=C\CCCCC(=O)OCCCOC(=O)CCCCCCCCCCCCC/C=C\CCCCCCCC [NA:GLA, 1-(z-15-tetracosenoyloxy)-3-(z,z,z-6,9,12-octadecatrienoyloxy)propane]	–	2
